Laboratory results: PubChem BioAssay AID652243 (Drosophila RNAi Screening Center, 2013)
The deposit covers about 24,000 reagents; this is an unselected part of those with a known target gene and a result. Of all reagents, 246 (1%) are marked active. 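Plates not normalised; calls are printed but the firefly/Renilla ratio behind them is not deposited; fold cut for lowering reported inconsistently.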 Raw values vary from plate to plate and are shown uncorrected. Names joined by + are all predicted targets of the reagent. Reagent sequences are not shown. The record does not give: the amount of reagent.

Screen: 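Fly regulators of androgen-dependent reporter output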 (primary screen)
Cell system: Drosophila S2R+ cells
Reagents: long dsRNA against Drosophila genes
Time to read-out: 72 h (48 h, then 24 h hormone)
Treatment: synthetic androgen R1881 at 10 nM for 24 h
Measured: 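Firefly light from an androgen-responsive reporter and Renilla control light per well, raw and unnormalised, for each of two replicates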
Reading the numbers: firefly reporter light: higher = more light from androgen-responsive reporter; Renilla control light: higher = more constitutive control signal (cell number, transfection)
Rule for the call: 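Hit when the log firefly-to-Renilla ratio dropped or increased by a fixed fold versus the mean of GFP or LacZ controls across duplicate plates; lowering cut given as 1.5 and as 3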
Meaning of the calls: active = hit: reporter lowered or raised; inactive = no hit

| gene knocked down | DRSC id | firefly reporter light, replicate 1 | firefly reporter light, replicate 2 | Renilla control light, replicate 1 | Renilla control light, replicate 2 | call |
| --- | --- | --- | --- | --- | --- | --- |
| lncRNA:CR32658 | DRSC19402 | 4.69e5 | 5.53e5 | 3.67e6 | 4.03e6 | inactive |
| lncRNA:CR32658 | DRSC26860 | 4.23e5 | 3.69e5 | 1.11e6 | 9.52e5 | inactive |
| CG30279 (retired record) | DRSC22417 | 4.00e5 | 6.89e5 | 1.36e6 | 2.21e6 | inactive |
| CG30279 (retired record) | DRSC27722 | 2.42e5 | 2.42e5 | 3.50e5 | 6.06e5 | inactive |
| Gbp3 | DRSC15206 | 1.51e5 | 1.61e5 | 2.60e6 | 2.28e6 | inactive |
| dgt4 | DRSC18659 | 3.55e5 | 3.60e5 | 4.91e6 | 2.93e6 | inactive |
| dgt4 | DRSC28573 | 5.09e5 | 5.64e5 | 9.54e5 | 1.33e6 | inactive |
| CG9864 | DRSC07346 | 66311 | 97955 | 8.08e5 | 9.08e5 | inactive |
| CG9864 | DRSC28765 | 5.02e5 | 7.76e5 | 1.22e6 | 1.15e6 | inactive |
| hts | DRSC28097 | 4.68e5 | 3.17e5 | 1.54e6 | 1.25e6 | inactive |
| hts | DRSC38863 | 9.34e5 | 7.17e5 | 2.85e6 | 2.21e6 | inactive |
| CG8490 | DRSC07194 | 7.30e5 | 7.47e5 | 1.85e6 | 2.04e6 | inactive |
| CG8490 | DRSC27075 | 5.10e5 | 2.71e5 | 9.39e5 | 8.44e5 | inactive |
| Ddc | DRSC03314 | 1.28e5 | 1.88e5 | 1.83e6 | 2.03e6 | inactive |
| Ddc | DRSC39110 | 4.39e5 | 3.38e5 | 9.14e5 | 1.25e6 | inactive |
| Dlg5 | DRSC02964 | 9.85e5 | 1.00e6 | 1.06e6 | 1.40e6 | inactive |
| Dlg5 | DRSC27257 | 2.97e5 | 2.26e5 | 5.94e5 | 6.04e5 | inactive |
| CG13614 | DRSC14617 | 1.85e5 | 1.55e5 | 1.98e6 | 2.12e6 | inactive |
| PolZ2 | DRSC12325 | 72332 | 41802 | 2.06e6 | 6.43e5 | inactive |
| CG5359 | DRSC15780 | 1.80e5 | 1.78e5 | 3.39e6 | 3.08e6 | active |
| Ddrgk1 | DRSC15897 | 1.31e5 | 83433 | 8.64e5 | 7.75e5 | inactive |
| Ddrgk1 | DRSC27688 | 2.90e5 | 1.70e5 | 4.85e5 | 5.78e5 | inactive |
| Arpc4 | DRSC02917 | 1.43e5 | 1.62e5 | 1.28e6 | 1.20e6 | inactive |
| Arpc4 | DRSC29608 | 3.29e5 | 2.40e5 | 9.11e5 | 9.11e5 | inactive |
| CG13361 | DRSC17896 | 1.15e5 | 1.89e5 | 2.96e6 | 3.01e6 | inactive |
| CG13361 | DRSC29728 | 5.57e5 | 4.54e5 | 1.56e6 | 1.74e6 | inactive |
| Nsun5 | DRSC15835 | 77642 | 70064 | 7.72e5 | 6.88e5 | inactive |
| Gr64e + Gr64d | DRSC28375 | 4.24e5 | 6.64e5 | 1.38e6 | 1.65e6 | inactive |
| Rrp45 | DRSC20198 | 2.76e5 | 2.73e5 | 3.75e6 | 2.24e6 | inactive |
| Rrp45 | DRSC29319 | 8.58e5 | 8.20e5 | 1.46e6 | 1.46e6 | inactive |
| vrs | DRSC15832 | 1.77e5 | 1.64e5 | 2.18e6 | 1.57e6 | inactive |
| vrs | DRSC26261 | 3.54e5 | 3.99e5 | 6.07e5 | 7.64e5 | inactive |
| CG3987 | DRSC15531 | 1.22e5 | 1.15e5 | 9.73e5 | 8.40e5 | inactive |
| CG32219 | DRSC09641 | 2.77e5 | 2.87e5 | 7.66e5 | 7.72e5 | inactive |
| Rdh1 | DRSC06812 | 1.21e6 | 1.12e6 | 1.75e6 | 3.56e6 | inactive |
| nis | DRSC00290 | 5.29e5 | 8.25e5 | 2.60e6 | 2.54e6 | inactive |
| snky | DRSC09838 | 2.00e5 | 1.47e5 | 1.46e6 | 1.85e6 | inactive |
| CG31787 | DRSC01632 | 1.32e5 | 2.12e5 | 5.12e5 | 7.30e5 | inactive |
| lky | DRSC20682 | 1.35e5 | 1.00e5 | 4.62e5 | 4.17e5 | inactive |
| lky | DRSC27161 | 3.34e5 | 2.76e5 | 4.69e5 | 4.42e5 | inactive |
| Jhedup | DRSC07173 | 78711 | 82417 | 1.47e6 | 1.47e6 | inactive |
| CG11414 | DRSC04110 | 6.93e5 | 6.66e5 | 1.32e6 | 1.43e6 | inactive |
| CG3719 | DRSC18493 | 6.57e5 | 5.57e5 | 3.38e6 | 3.81e6 | inactive |
| CG5254 | DRSC18611 | 2.53e5 | 1.71e5 | 2.97e6 | 1.78e6 | inactive |
| CG31431 | DRSC14589 | 2.92e5 | 3.17e5 | 2.01e6 | 3.25e6 | inactive |
| CG31431 | DRSC39317 | – | – | – | – | inactive |
| Eaat2 | DRSC00032 | 1.74e5 | 3.37e5 | 5.20e5 | 5.79e5 | inactive |
| Eaat2 | DRSC00749 | 9.15e5 | 7.07e5 | 3.22e6 | 2.98e6 | inactive |
| Eaat2 | DRSC26070 | 2.37e5 | 3.79e5 | 5.14e5 | 6.33e5 | inactive |
| yellow-d | DRSC04589 | 3.55e5 | 3.50e5 | 2.00e6 | 1.95e6 | inactive |
| yellow-d | DRSC26933 | 3.90e5 | 3.00e5 | 8.24e5 | 4.04e5 | inactive |
| ssp | DRSC10252 | 6.33e5 | 4.40e5 | 1.25e6 | 9.44e5 | inactive |
| thoc6 | DRSC10528 | 7.47e5 | 8.00e5 | 1.36e6 | 1.51e6 | inactive |
| CG15172 | DRSC02473 | 1.03e5 | 1.35e5 | 1.31e6 | 1.12e6 | inactive |
| CG15172 | DRSC27372 | 2.27e5 | 3.20e5 | 7.47e5 | 8.22e5 | inactive |
| CG11362 | DRSC04106 | 4.15e5 | 3.77e5 | 3.37e6 | 2.93e6 | inactive |
| CG11362 | DRSC22032 | 6.89e5 | 5.41e5 | 2.93e6 | 1.65e6 | inactive |
| CG11362 | DRSC27136 | 2.68e5 | 2.60e5 | 7.44e5 | 8.08e5 | inactive |

6 neighbouring entries from above, quoted:
| gene knocked down | DRSC id | firefly reporter light, replicate 1 | firefly reporter light, replicate 2 | Renilla control light, replicate 1 | Renilla control light, replicate 2 | call |
| --- | --- | --- | --- | --- | --- | --- |
| Ddc | DRSC03314 | 1.28e5 | 1.88e5 | 1.83e6 | 2.03e6 | inactive |
| Ddc | DRSC39110 | 4.39e5 | 3.38e5 | 9.14e5 | 1.25e6 | inactive |
| Dlg5 | DRSC02964 | 9.85e5 | 1.00e6 | 1.06e6 | 1.40e6 | inactive |
| Dlg5 | DRSC27257 | 2.97e5 | 2.26e5 | 5.94e5 | 6.04e5 | inactive |
| CG13614 | DRSC14617 | 1.85e5 | 1.55e5 | 1.98e6 | 2.12e6 | inactive |
| PolZ2 | DRSC12325 | 72332 | 41802 | 2.06e6 | 6.43e5 | inactive |
